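Each compound is printed as two spots on a slide made to bind it covalently, so it has no test concentration; the read-out is fluorescence of the bound, labelled oligonucleotide. For the PreQ1, TPP and SAM-II riboswitches the laboratory earlier reported (doi:10.1038/s41467-019-09493-3) 1 µM RNA, 2 h, and a rule that included a mean Z-score above 3 (spot signal-to-noise against the whole library), a score well above that on a control array, and duplicate spots agreeing (coefficient of variation under 100). The data file gives only the calls; its cut-offs may differ, and compounds hitting several targets are kept. A missing hit is not proof of no binding, and a hit is not a measured affinity.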
A compound is marked hit if it was called a hit and no hit if it was screened but was not.
Compounds were drawn at random from those tested, without regard to their results.
A dash means that no call is listed here.

Oligonucleotides screened, 5′ to 3′:
SAM-II: SAM-II riboswitch RNA pseudoknot, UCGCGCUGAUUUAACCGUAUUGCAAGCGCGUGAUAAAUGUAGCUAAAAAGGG. About 200 hits among about 21,000 compounds.
PreQ1: PreQ1 riboswitch RNA pseudoknot, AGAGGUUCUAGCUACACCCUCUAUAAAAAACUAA. From B. subtilis. About 170 hits among about 24,000 compounds.
TPP: TPP riboswitch RNA three-way junction, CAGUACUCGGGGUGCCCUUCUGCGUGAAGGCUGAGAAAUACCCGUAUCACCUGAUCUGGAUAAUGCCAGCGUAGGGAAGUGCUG. About 160 hits among about 24,000 compounds.

Compound,SAM-II,PreQ1,TPP
O=C1CC(Nc2cccc(Cl)c2)C(=O)N1c1cccc(Cl)c1 (centres unmarked),no hit,no hit,no hit
Cn1nnnc1SCCNC(=O)CCc1cc2n(n1)CCNC2,no hit,no hit,no hit
Cc1ccc2ncnc(NCCCCCC(=O)O)c2c1,no hit,no hit,no hit
CCN1CCN(Cc2ccc(NC3=NS(=O)(=O)C(c4ccc(OC)cc4)=C3C)cc2)CC1,-,no hit,no hit
COc1cc(CO)cc(Br)c1OCc1ccc(C(=O)O)cc1,no hit,no hit,no hit
O=C(C1CCC(CNc2c(N3CCCC3)c(=O)c2=O)CC1)N1CCc2ccccc21 (centres unmarked),-,no hit,no hit
NC(=O)c1cc2c3ccccc3ccn2c1-c1ccccc1,no hit,no hit,no hit
CCOC(=O)c1ccc(Nc2c(-c3ccc(O)cc3)nc3cnccn23)cc1,-,no hit,no hit
Cc1ccc(C(C)Cc2cn(CCCCO)nn2)o1 (centres unmarked),no hit,no hit,no hit
COc1ccc(C2=C(C)C(Nc3cccc(C(C)=O)c3)=NS2(=O)=O)cc1,-,no hit,no hit
COc1ccc(-c2cc(Nc3cccc(C(C)=O)c3)nc(C)n2)cc1,-,hit,no hit
Cc1ccc(CN2CCCCC2CCCO)c2cccnc12 (centres unmarked),no hit,no hit,no hit
Cc1nccn1CCCN1CCC2(CCC(=O)N(CCO)C2)CC1,no hit,no hit,no hit
Cc1ccn2c(Nc3ccccc3C)c(-c3ccncc3)nc2c1,no hit,no hit,no hit
Cc1ccc(F)c(-c2cn(Cc3ccc(CO)cc3)nn2)c1Cl,no hit,no hit,no hit
CSc1nc(NC(C)(C)C)c(C#N)c(-c2ccccc2)n1,-,no hit,no hit
N#CC1=C(N)Oc2c(c(=O)[nH]c3ccccc23)C1c1ccncc1 (centres unmarked),no hit,no hit,no hit
CCn1c(SCC(C)O)nc2ccccc21 (centres unmarked),-,no hit,no hit
Nc1ccc2c(c1)nc(CN1CCOCC1)n2CCO,no hit,no hit,no hit
NC(=O)NO,no hit,no hit,no hit
Cl.O=C(Nc1cccc(C(F)(F)F)c1)c1cccnc1NCCO,no hit,no hit,no hit
CN1C[C@H](NC(=O)c2cccc3nccnc23)C[C@H]1CO,no hit,no hit,no hit
CCc1c(C(=O)N2C[C@@H](CN3CCCN(C)CC3)[C@@H](CO)C2)csc1C,no hit,no hit,no hit
COc1cccc([C@H]2CN(C(=O)c3cc4nc(C)cc(C)n4n3)C[C@@H]2N)c1,no hit,no hit,no hit
CN(C)CCCNc1c2c(c(C#N)c3nc4ccccc4n13)CCC2,no hit,no hit,no hit
COC(=O)c1c(N)n(-c2cccc(C(F)(F)F)c2)c2nc3ccccc3nc12,no hit,no hit,no hit
CCn1c(C(=O)O)c(CNCCc2ccccc2OC)c2ccc(OC)cc21,-,no hit,no hit
N[C@@H]1CC[C@@H](NC(=O)c2cnc(Nc3ccccc3)nc2)C1,no hit,no hit,no hit
Cc1ccc2[nH]cc(C(O)CN3CCC(C)CC3)c2c1 (centres unmarked),-,no hit,no hit
COc1ccc(C2(CCNCc3ccc(OC)c(OC)c3)CCOC(C)(C)C2)cc1 (centres unmarked),no hit,no hit,no hit
NC(=O)c1ccc(N(C(N)=O)c2c(F)cccc2F)nc1-c1ccc(F)cc1F,no hit,no hit,no hit
COc1ccc([C@H]2C[C@@H](c3ccc(C)cc3)Nc3nc(N)nn32)cc1OC,no hit,no hit,no hit
O=P(OC1=CCCCC1)(c1ccccc1)c1ccccc1,no hit,no hit,no hit
CCCc1c(C)nc2ncnn2c1Nc1cc(Cl)ccc1OC,no hit,no hit,no hit
COc1cc(C=CC(=O)CC(=O)C=Cc2ccc(O)c(OC)c2)ccc1O,no hit,no hit,no hit
CCc1nc2ccccc2n1CC(O)COc1ccc(C)c(C)c1 (centres unmarked),-,no hit,no hit
CN(Cc1ccccc1)C(=O)C1CCC(CNc2c(N3CCCCC3)c(=O)c2=O)CC1 (centres unmarked),-,no hit,no hit
CC(C)c1ncc(CN2C[C@@H](CN3CCCCC3)[C@@H](CO)C2)cn1,no hit,no hit,no hit
Cc1ccsc1CN(C[C@H]1CC[C@@H](N)CC1)C1CC1,no hit,no hit,no hit
CCC(O)c1nc2ccccc2n1CCCOc1ccccc1 (centres unmarked),-,no hit,no hit
CCc1ccc([C@H]2N[C@@](CC(C)C)(C(=O)OC)[C@H]3C(=O)N(C)C(=O)[C@@H]23)nc1,no hit,no hit,no hit
COc1ccccc1OCC(O)Cn1c(C2CC(=O)N(c3cccc(C)c3)C2)nc2ccccc21 (centres unmarked),-,no hit,no hit
Cc1cccc2nc(C(=O)N(Cc3ccccc3)CC(C)CO)c(F)n12 (centres unmarked),no hit,no hit,no hit
Cc1cnc(CNCC(=O)Nc2cnccn2)cn1,no hit,no hit,no hit
Cc1cc(-c2nn(C)c(Cl)c2CN2CCC3(CC2)[C@H](O)C[C@@H]3O)no1,no hit,no hit,no hit
Cc1cccc(OCCn2c(C(C)O)nc3ccccc32)c1 (centres unmarked),-,no hit,no hit
CCn1cnnc1CCNC(=O)c1cccc(CC2CCNCC2)c1,no hit,no hit,no hit
COCc1ncc(CN2CC[C@@H](c3ccc4ccccc4c3)[C@H](O)C2)cn1,no hit,no hit,no hit
CN(C)c1ccc(C2C=C(Nc3ccccc3)C(=O)N2c2ccccc2)cc1 (centres unmarked),no hit,no hit,no hit
Cc1c(S(=O)(=O)c2ccc(Cl)cc2)c(N)n(C2CCCC2)c1C,no hit,no hit,no hit
Cc1csc(C2=C(N)N(c3cccc(Br)c3)CC2=O)n1,-,no hit,no hit
Oc1nnc(-c2cc(NC3CCNCC3)nc3[nH]ccc23)c2ccccc12,no hit,no hit,no hit
C[C@@H](O)[C@H](N)C(=O)N1CCN(c2ccccc2Cl)C(=O)C1,no hit,no hit,no hit
CCc1nc(N2C[C@H](NC(=O)CO)[C@@H](C3CC3)C2)ncc1C,no hit,no hit,no hit
Nc1nonc1-c1nc2ccccc2n1CCO,no hit,no hit,no hit
COc1ccc(-c2nc3nc(C)cc(Nc4ccc(Cl)cc4)n3n2)cc1,-,no hit,no hit
Cn1c2c(c(=O)n(C)c1=O)C(c1ccc(Cl)cc1)C(C#N)=C(N)O2 (centres unmarked),no hit,no hit,no hit

The first 4 entries again:

Compound	SAM-II	PreQ1	TPP
O=C1CC(Nc2cccc(Cl)c2)C(=O)N1c1cccc(Cl)c1 (centres unmarked)	no hit	no hit	no hit
Cn1nnnc1SCCNC(=O)CCc1cc2n(n1)CCNC2	no hit	no hit	no hit
Cc1ccc2ncnc(NCCCCCC(=O)O)c2c1	no hit	no hit	no hit
CCN1CCN(Cc2ccc(NC3=NS(=O)(=O)C(c4ccc(OC)cc4)=C3C)cc2)CC1	-	no hit	no hit

Source: the ROBIN nucleic acid binder screens (doi:10.1002/anie.202211358).